According to patent US20030099969A1 (published 2003):
Results are given in words; binding and its absence hold for the method and conditions named. In cells and extracts the contact can be indirect. Some binding calls cover weakened binding; strength is not graded here. Tags and fused reporters may be left off the sequences shown.

By UniProt entry, the sequences of proteins in these tests, tags left out.
UniProt P29466: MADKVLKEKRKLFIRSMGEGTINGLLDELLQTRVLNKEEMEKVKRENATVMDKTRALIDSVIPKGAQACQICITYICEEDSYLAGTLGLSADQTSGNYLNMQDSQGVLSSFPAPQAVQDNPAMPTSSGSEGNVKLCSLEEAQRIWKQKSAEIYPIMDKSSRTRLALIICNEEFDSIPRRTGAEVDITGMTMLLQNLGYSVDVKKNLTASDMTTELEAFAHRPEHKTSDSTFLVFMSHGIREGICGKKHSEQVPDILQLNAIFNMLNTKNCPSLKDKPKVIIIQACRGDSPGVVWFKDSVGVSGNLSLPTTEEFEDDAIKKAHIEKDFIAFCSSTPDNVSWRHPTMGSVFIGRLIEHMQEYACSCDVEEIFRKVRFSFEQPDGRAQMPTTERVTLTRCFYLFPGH

T1: Ipaf-CARD-GST fusion protein (human) (UniProt Q9NPP4)
T1 sequence: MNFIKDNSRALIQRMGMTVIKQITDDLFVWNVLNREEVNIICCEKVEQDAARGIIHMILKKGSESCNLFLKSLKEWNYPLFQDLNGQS

B1: Flag-tagged CARD domain (residues 1-88) of Ipaf (protein)
chain: DYKDDDDKMNFIKDNSRALIQRMGMTVIKQITDDLFVWNVLNREEVNIICCEKVEQDAARGIIHMILKKGSESCNLFLKSLKEWNYPLFQDLNGQS

What was measured:
[1] = biological target: T1, Ipaf-CARD-GST fusion protein (human); assay: GST pull-down on glutathione Sepharose beads, SDS-PAGE and autoradiography
[2] = biological target: T1, Ipaf-CARD-GST fusion protein (human); assay: GST pull-down, autoradiography, FIG. 9
[3] = biological target: T1, Ipaf-CARD-GST fusion protein (human); assay: GST pull-down, autoradiography, FIG. 7
[4] = biological target: T2, T7-tagged full length Ipaf (human, UniProt Q9NPP4 1-1024); assay: co-immunoprecipitation from 293T lysates (IP anti-Flag, blot anti-T7), FIG. 6
T2 construct: also called T7-Ipaf; T7-tagged Ipaf

[5] = biological target: T2, T7-tagged full length Ipaf; assay: co-immunoprecipitation from 293T lysates (IP anti-Flag, blot anti-T7)
Protocol: 24 hours following transfection, cells were lysed in 50 mM Tris/HCl pH 7.6, 150 mM NaCl containing 0.5% NP-40, 10 μg.ml⁻¹ leupeptin and aprotinin and 0.1 mM PMSF and clarified by centrifugation at 15,000 g for 15 min. The clarified lysates were preabsorbed on protein G-Sepharose (Pharmacia) and then incubated with anti-FLAG-M5 monoclonal antibody (Eastman Kodak Co.) for 2 hours, followed by protein G-Sepharose agarose IgG beads. Immune complexes were washed extensively in the lysis buffer and eluted by boiling in an SDS sample buffer. The eluted proteins were resolved by SDS-PAGE and detected by Western analysis with a horseradish peroxidase-conjugate T7-antibody (Novagen). GST Pull-down assays were performed as described (Ahmad et al., Cancer Res 57:615-9, 1997).
24 hours following transfection, cells were lysed and the lysates immunoprecipitated (IP) with an anti-Flag antibody. The immunoprecipitates were immunoblotted (IB) with an anti-T7 antibody. Expression of T7-Ipaf or Flag-tagged constructs was determined by immunoblotting (IB) with anti-T7 or anti-Flag antibodies, respectively. […] This association was dependent on the N-terminal CARD as deletion of this domain prevented the CARD-truncated Ipaf mutant from interacting with the full-length Ipaf. Moreover, the epitope-tagged CARD of Ipaf was able to co-immunoprecipitate the full-length protein.

binding [1] | binding [2] | binding [3] | binding [4] | binding [5] | Molecule
binds | binds | – | – | – | 35S-labeled procaspase-1 (from UniProt P29466 1-404) (enzyme)
binds | – | binds | – | – | 35S-labeled Ipaf (from UniProt Q9NPP4 1-1024)
– | – | – | binds | binds | Flag-tagged full length Ipaf (from UniProt Q9NPP4 1-1024)
– | – | – | binds | binds | B1
